Source: PubChem BioAssay AID2685 (National Center for Advancing Translational Sciences (NCATS), 2010)
This is one part of the list. The main result of the screen is listed elsewhere. These columns were measured beside it and carry no call. The list favours compounds with an active or inconclusive main result. The note in brackets gives the kind of curve behind each potency; many fits are weak.

Assay: qHTS Assay for Lipid Storage Modulators in Drosophila S3 Cells;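 on cell number change: cells counted by Cell Tracker Red CMTPX staining in the red channel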
Details: BODIPY lipid droplet fluorescence, 18-24 h; for cell number change: measured here: cell count max response, cells fed with added oleic acid
Outline: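 Drosophila S3 cells loaded with oleic acid (400 uM, as added) and compounds at several concentrations; lipid droplets imaged by 488-nm laser-scanning cytometry, 500–530 nm intensity and object ratio to cell channel. Percent activity normalized to 20 uM Triacsin C.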

[1] = measured here: cell number channel AC50, cells fed with added oleic acid
[2] = measured here: lipid fluorescence (Fed channel) AC50, cells fed with added oleic acid

CC(C)(C)c1cn(-c2ccc(F)cc2)c(=S)[nH]1
cell number change: -7.82%
AC50 [1]: 6.51 µM [falling, single point]
AC50 [2]: 3.26 µM [falling, full curve]

Oc1ccc(Br)cc1/C=N/Nc1ccccn1
cell number change: -50.4%
AC50 [1]: 4.61 µM [falling, full curve]

COc1nc(NC(=O)c2ccc(F)cc2)nc(OC)c1-c1ccccc1
cell number change: 4.5%

Cc1cc(=O)oc2c(C)c(OC(C)C(=O)NCC(O)c3ccccc3)ccc12 (stereo not given)
cell number change: 13.4%

CN(c1ccccc1)S(=O)(=O)c1ccc(NC(=S)NC(=O)C2CC2)cc1
cell number change: 8.24%
AC50 [2]: 23.1 µM [rising, single point]

O=C(Nc1cccnc1)c1cc(-c2cccc(Br)c2)nc2ccccc12
cell number change: 29%
AC50 [1]: 0.411 µM [rising, full curve, poor fit]
AC50 [2]: 6.51 µM [falling, partial curve]

CCOC(=O)CNC(=O)CNC(=O)c1ccc(OC)cc1
cell number change: 32.3%
AC50 [1]: 0.651 µM [rising, partial curve, poor fit]

O=C(Nc1ccc2c(c1)ncn2C1CCCCC1)c1ccco1
cell number change: 39.1%
AC50 [1]: 8.2 µM [rising, partial curve]
AC50 [2]: 6.51 µM [rising, single point]

CC(C)(C)c1nnc2sc(SCC(=O)NCc3ccco3)nn2c1=O
cell number change: 8.27%
AC50 [2]: 0.0731 µM [rising, full curve, poor fit]

CCn1c(COc2cccc(OC)c2)nnc1SCC(=O)NC1CCCC1
cell number change: 10.5%
AC50 [2]: 0.13 µM [rising, full curve]

COc1nc(OC)nc(N2CCC(C(=O)NC3CCCCCC3)CC2)n1
cell number change: -34.6%
AC50 [1]: 7.31 µM [falling, partial curve]

CCC(=O)N1CCN(c2ccc(NC(=S)NC(=O)c3cc4ccccc4o3)cc2)CC1
cell number change: -23.7%
AC50 [1]: 4.61 µM [falling, full curve, poor fit]

COc1c(Cl)cc(Cl)cc1CNCCNCCO
cell number change: 46.4%
AC50 [1]: 25.9 µM [rising, single point]

COc1cccc(N/C(SCc2cccc([N+](=O)[O-])c2)=C(/C#N)C(=O)NCc2cccs2)c1
AC50 [2]: 11.6 µM [rising, partial curve]

O=C(COC(=O)c1cc(S(=O)(=O)N2CCOCC2)ccc1Cl)Nc1ccccc1Cl
cell number change: 5.38%
AC50 [2]: 0.411 µM [falling, full curve, poor fit]

O=C(O)/C=C/C(=O)Nc1ccc(SC(F)(F)C(F)(F)C(F)(F)F)cc1
cell number change: -92%
AC50 [1]: 29.1 µM [falling, single point]

COc1ccc(CCNC(=O)C2CCN(C(=O)c3ccc(Br)cc3)CC2)cc1OC
cell number change: -17.5%
AC50 [2]: 18.4 µM [falling, single point]

Cc1cc(SC(C)C(=O)NCC(=O)Nc2ccc(F)c(F)c2F)nc2ccccc12 (stereo not given)
cell number change: -21.5%
AC50 [1]: 2.91 µM [falling, full curve, poor fit]
AC50 [2]: 3.26 µM [falling, single point]

Cc1ccc(C(=O)N/N=C/C=C/c2ccccc2)cc1
cell number change: 0.124%

COc1cc(NS(=O)(=O)c2ccc(N)cc2)ncn1
cell number change: -11.1%
AC50 [1]: 0.82 µM [rising, partial curve]

CC1CCN(Cc2c(C(=O)N/N=C/c3cccc(C(F)(F)F)c3)nnn2-c2nonc2N)CC1
cell number change: 71.2%
AC50 [1]: 29.1 µM [rising, single point]

COc1ccc(CCNC(=O)CC(NS(=O)(=O)c2ccc(NC(C)=O)cc2)C(C)C)cc1OC (stereo not given)
cell number change: 19.3%

CC(C)(C)Cc1nnc(NC(=O)c2ccco2)s1
AC50 [2]: 29.1 µM [rising, single point]

COCCCNC(=O)COc1ccc(Br)cc1Cl
cell number change: -42.5%
AC50 [2]: 29.1 µM [falling, single point]

COc1ccccc1C1/C(=C(\O)c2ccc3c(c2)OCCO3)C(=O)C(=O)N1Cc1cccnc1 (stereo not given)
cell number change: 10.7%

COc1ccc(Cl)cc1NC(=O)CSc1nc2ccsc2c(=O)n1CC1CCC(C(=O)O)CC1 (stereo not given)
cell number change: 21.2%

CCOc1ccc(CNC(=O)C2CCN(c3nn4c(=O)cc(C)nc4s3)CC2)cc1
cell number change: 8.56%
AC50 [2]: 29.1 µM [rising, single point]

O=C(O)CCc1ccc(S(=O)(=O)Nc2ccc(OCc3ccccc3)cc2)cc1
cell number change: -36.5%
AC50 [1]: 9.2 µM [falling, partial curve, poor fit]

COc1ccccc1N1C(=O)CC(N2CCN(c3ccc(Cl)cc3)CC2)C1=O (stereo not given)
cell number change: 18.2%

C=CCOc1cc(C)nc(-c2ccccc2O)n1
cell number change: 122%
AC50 [1]: 4.61 µM [rising, partial curve]
AC50 [2]: 5.8 µM [rising, partial curve]

CN1CCN(S(=O)(=O)c2ccc(NC(=O)c3cccc(F)c3)cc2)CC1
cell number change: 2.91%
AC50 [1]: 0.00411 µM [rising, full curve, poor fit]
AC50 [2]: 9.2 µM [rising, partial curve]

O=C(NCc1ccco1)c1cc(S(=O)(=O)N2CCCc3ccccc32)ccc1Cl
cell number change: -64.7%
AC50 [1]: 23.1 µM [falling, partial curve, poor fit]

O=C(CSCc1ccccc1)Nc1ccccc1C(=O)Nc1ccc(C(=O)O)cc1
cell number change: 0.351%

COc1cc(CC(CC(=O)O)CC(C)OCc2ccccc2)cc(OC)c1 (stereo not given)
AC50 [2]: 18.4 µM [rising, single point]

O=C(COC(=O)CNS(=O)(=O)c1cccc(Br)c1)Nc1ccccc1Sc1ccccc1
cell number change: 5.34%
AC50 [1]: 0.103 µM [rising, full curve, poor fit]

COc1cc(CNC(=O)OCC(C)C)cc(OC)c1OC
cell number change: 21.5%
AC50 [2]: 0.103 µM [falling, full curve, poor fit]

Cc1nc2sc(C(c3cccs3)N3CCN(C(=O)c4ccco4)CC3)c(O)n2n1 (stereo not given)
AC50 [2]: 6.51 µM [falling, single point]

O=C(CN1C(=O)S/C(=C\c2ccccc2)C1=O)Nc1cc([N+](=O)[O-])ccc1O
cell number change: -13.8%

CCOCCCNC(=O)C(NC(=O)c1ccc2c(c1)OCO2)c1ccc(Cl)cc1 (stereo not given)
cell number change: -7.33%
AC50 [2]: 0.82 µM [falling, full curve, poor fit]

CC(C)C(=O)Nc1nnc(SCC(=O)NC2CC2)s1
cell number change: 7.96%

O=C(CNC(=O)C1CCCCC1)NCCCO
cell number change: 17.3%
AC50 [2]: 29.1 µM [rising, single point]

COc1ccc(C)cc1Nc1n[n+](-c2ccccc2)c(-c2cc([N+](=O)[O-])cc(OC)c2O)s1
cell number change: 71.5%
AC50 [1]: 25.9 µM [rising, partial curve]
AC50 [2]: 29.1 µM [falling, single point]

COCCNC(=O)Cn1c(=O)oc2cc(S(=O)(=O)N3CC(C)CC(C)C3)ccc21 (stereo not given)
cell number change: 27.4%

CC(=O)NCC(=O)OCc1ccc([N+](=O)[O-])cc1
cell number change: -5.22%
AC50 [2]: 4.11 µM [falling, partial curve, poor fit]

Cc1ccc(Oc2ccccc2NC(=O)C2=COCCO2)cc1
cell number change: -9.19%

COc1ccc(-c2nnc(SC)o2)c(OC)c1
cell number change: -18.1%
AC50 [2]: 1.16 µM [rising, single point]

Cc1ccccc1Cn1nc(C)c(NC(=O)C2c3ccccc3Oc3ccccc32)c1C
cell number change: 12.7%
AC50 [2]: 2.59 µM [falling, partial curve]

N#CC1=C(N)Oc2ccc3ccccc3c2C1c1cccnc1 (stereo not given)
cell number change: 10.8%

CCOC(=O)c1c(CSc2ccc(C)cc2)oc2ccc(O)cc12
cell number change: -47%
AC50 [1]: 23.1 µM [falling, single point]
AC50 [2]: 29.1 µM [falling, single point]

CCCCc1ccc(CC(=O)Nc2cc(S(=O)(=O)N3CCOCC3)ccc2O)cc1
AC50 [2]: 25.9 µM [falling, partial curve]

CCOC(=O)C1CCCN(c2c(NCc3ccco3)c(=O)c2=O)C1 (stereo not given)
cell number change: -10.2%

CC(C)c1ccccc1OCC(O)CN(CC(O)COc1cccc2ccccc12)C(C)C (stereo not given)
cell number change: 53.2%
AC50 [1]: 29.1 µM [rising, single point]
AC50 [2]: 6.51 µM [falling, partial curve]

CCOc1ccc(C(C)NC(=O)c2cccc(F)c2)cc1 (stereo not given)
cell number change: -50%
AC50 [1]: 3.66 µM [falling, partial curve]

Cc1ccc(C2(CC(=O)Nc3nccs3)CCOC(C(C)C)C2)cc1 (stereo not given)
cell number change: 8.9%

OCCNCc1cc(Br)ccc1OCc1ccccc1Cl
cell number change: -3.48%
AC50 [2]: 14.6 µM [falling, single point]

CC(C)N(C1=CC(=O)OC12CCCCC2)C(C)C
cell number change: 15.2%
AC50 [2]: 4.61 µM [rising, single point]

CC1Cc2ccccc2N1C(=O)CSc1nnc(-c2ccc(S(=O)(=O)N3CCCC3)cc2)n1C (stereo not given)
cell number change: -15.7%
AC50 [2]: 0.58 µM [falling, full curve, poor fit]

COCCOC(=O)C1=C(C)NC(=O)NC1C1CC=CCC1 (stereo not given)
cell number change: -52.3%
AC50 [1]: 29.1 µM [falling, single point]
AC50 [2]: 5.17 µM [falling, full curve]

COC(=O)C(NS(=O)(=O)c1ccc(N2CCCC2=O)cc1)c1ccccc1 (stereo not given)
cell number change: -0.88%
AC50 [2]: 0.00517 µM [falling, full curve, poor fit]

CC(C)n1c(CCCO)nc2ccccc21
cell number change: -0.52%
AC50 [2]: 0.92 µM [rising, full curve]

CCOc1ccc(CC(=O)NC2CCN(Cc3ccccc3)CC2)cc1
cell number change: 22.6%

O=C(C1CCCCN1S(=O)(=O)c1ccccc1[N+](=O)[O-])N1CCCCC1 (stereo not given)
AC50 [2]: 0.13 µM [falling, full curve, poor fit]

COc1ccc(OCc2cc(C(=O)NCc3nc(C)cs3)no2)c(Cl)c1
cell number change: 42.2%
AC50 [1]: 1.3 µM [rising, full curve, poor fit]
AC50 [2]: 4.61 µM [rising, full curve]
